In article PMC5568431:
Results are given in words; binding and its absence hold for the method and conditions named. Binding seen in cells or lysates may run through a third protein. Some results given as binding are weak or reduced against the parent protein; the word gives no strength.

Tests used:
[1] = biological target: T1, Mic27 (S. cerevisiae (endogenous in isolated yeast mitochondria)) (UniProt P50945); test: cross-linking + co-IP; WT or Δmic27 mitochondria treated or not with MBS, solubilized with digitonin (4 g/g), immunoprecipitation with purified anti-Mic27 antibody, Western blot
T1 sequence: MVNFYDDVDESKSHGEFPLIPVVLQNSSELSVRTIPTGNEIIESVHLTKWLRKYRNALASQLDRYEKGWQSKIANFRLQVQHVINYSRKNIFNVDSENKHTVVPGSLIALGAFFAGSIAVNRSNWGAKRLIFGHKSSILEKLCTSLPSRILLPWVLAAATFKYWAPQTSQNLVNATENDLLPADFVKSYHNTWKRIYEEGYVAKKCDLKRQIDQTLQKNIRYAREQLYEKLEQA

[2] = biological target: T1, Mic27 (S. cerevisiae (endogenous in isolated yeast mitochondria)); test: cross-linking; isolated mitochondria (WT and deletion strains, among them Δmic27, Δmic10, Δsu e) in 0.6 M sorbitol, 20 mM HEPES pH 7.4, 400 μM MBS for 30 minutes, stopped with 100 mM glycine pH 8; DMSO as negative control; SDS-PAGE and Western blotting
[3] = biological target: T2, Mic10 (S. cerevisiae (endogenous in isolated yeast mitochondria)) (UniProt Q96VH5); test: as above
T2 sequence: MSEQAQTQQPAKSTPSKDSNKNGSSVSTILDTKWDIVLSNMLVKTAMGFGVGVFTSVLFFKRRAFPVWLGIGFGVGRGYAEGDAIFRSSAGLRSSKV

[4] = biological target: T1, Mic27 (S. cerevisiae (endogenous in isolated yeast mitochondria)); test: co-IP; WT, Δmic10 and Δmic27 mitochondria solubilized with digitonin (4 g/g) in 50 mM NaCl, 50 mM imidazole/HCl pH 7, 1 mM EDTA; affinity purified anti-Mic10 or anti-Mic27 antibody on protein A Sepharose CL-4B; pre-immune serum and deletion strains as negative controls; Western blot
[5] = biological target: T2, Mic10 (S. cerevisiae (endogenous in isolated yeast mitochondria)); test: as above

Row | Binder | binding [1] | binding [2] | binding [3] | binding [4] | binding [5]
1 | Mic10 (protein, UniProt Q96VH5 1-97) MSEQAQTQQPAKSTPSKDSNKNGSSVSTILDTKWDIVLSNMLVKTAMGFGVGVFTSVLFFKRRAFPVWLGIGFGVGRGYAEGDAIFRSSAGLRSSKV | binds | binds |  |  | 
2 | F1FO-ATP synthase subunit e (protein, UniProt P81449 1-96) MSTVNVLRYSALGLGLFFGFRNDMILKCNAKKKEEQAQYEEKLKLVEEAKKEYAKLHPVVTPKDVPANASFNLEDPNIDFERVILNAVESLKEAST |  | no binding | binds | no binding | binds
3 | F1FO-ATP synthase subunit γ (protein, UniProt P38077 34-311) ATLKEVEMRLKSIKNIEKITKTMKIVASTRLSKAEKAKISAKKMDEAEQLFYKNAETKNLDVEATETGAPKELIVAITSDKGLCGSIHSQLAKAVRRHLNDQPNADIVTIGDKIKMQLLRTHPNNIKLSINGIGKDAPTFQESALIADKLLSVMKAGTYPKISIFYNDPVSSLSFEPSEKPIFNAKTIEQSPSFGKFEIDTDANVPRDLFEYTLANQMLTAMAQGYAAEISARRNAMDNASKNAGDMINRYSILYNRTRQAVITNELVDIITGASSLG |  |  |  | binds | binds
4 | Mic60 (protein, UniProt P36112 18-540) ASINTGTTVASKKASHKFRNTLWTIALSATAFYAGGIIYSQKNDKFGDFFSNNVPFAEDLLETYEHYHDRPTLFLEDSWDGLKAKSNDLLSGLTGSSQTRRSNRENIEVKKILSLEPLNIETENSDPQLKEIIGSLNDLINSLNDSNLSIPESEFNSIKKSNQNMLTNLSQLNETLKEALSNYMIQRTSEVITELNTQYENSKREFEKNLQKNLLQEVDEFKENLTKQKDKELEEKLKANEELLQAKHANEVGLLSITQVKEFNKIIKDKIEKERNGRLAHLEEINSEVNDLSKSIDRSSKILSKNEALVQLTFQVDEIKSRINNNNLPDVNIDKELSRLKLLSNLLSTFNKKSCCDDGDCCSCKKGNKNEGKEGKISCKCKPKTNPPSLLSVALDELESTCSGKKILSNEQIYNRWNLLADDFKTASLLPPNSGILGQLTAKVFSLFLFTKTGNPSNATDFDSVYARVGDNLRVSNLNDAVEEVVSLKGWPHKVCESWIEDARRKLEVQRLVEILDCEIRTL |  |  |  |  | binds
5 | Mic26 (protein, UniProt P50087 1-233) MTKDFYRQLDPVEEKIVPPENAIVISSEAKEATVNEKEAKQGVLSQRVMKYIGENELVDGISVRDPDYLKRFFNERRKQFSAKWDKVTNKIDDIAGRYYAREESFTSTIASLHTDPNERLIPGLLSILVASMTGSVLARRRTWLLRATMPIILGSCCFAYAMPTTFRNTMGLIHNLEMNTFPHFTERQDRVWKETKRLSTASVQYYYDAKKWLNKDVEKTGNAIKNWTGVNVK |  |  |  |  | binds
